{"source": "patent US20260273004A1", "about": "“AGENT AND METHOD FOR MAINTAINING OR IMPROVING CEREBRAL FUNCTION USING CRUDE DRUG” (CEREBRO PHARMA INC., priority 2023, published 2026)", "origin": "cited, not measured here", "key": {"BDNF": {"tested_on": "BDNF", "settings": "intraperitoneal administration; rats with Aβ injected into the brain; Non-Patent Literature 24; cited from earlier work"}, "AD model mice": {"tested_on": "AD model mice", "settings": "oral administration, Non-Patent Literature 22, 23; cited from earlier work"}}, "note": "For at least one compound, name, drawing or mass did not settle the structure."}
{"smiles": "C[C@@H]1O[C@@H](OC[C@H]2O[C@@H](Oc3c(-c4ccc(O)c(O)c4)oc4cc(O)cc(O)c4c3=O)[C@H](O)[C@@H](O)[C@@H]2O)[C@H](O)[C@H](O)[C@H]1O", "note": "[Rutin]", "values": [{"measurement": "BDNF expression", "setting": "BDNF", "value": "increases BDNF expression"}, {"measurement": "Aβ and tau oligomers", "setting": "AD model mice", "value": "reduces Aβ and tau oligomers"}, {"measurement": "cognitive function", "setting": "AD model mice", "value": "improves cognitive function"}]}
